This assay concerns the target S100 calcium-binding protein A10 (S100A10) (UniProt P60903). The assay can be described thus: co-IP; cell lysate incubated with anti-S100A10 or anti-cPLA2 antibody and protein A/G beads for 2 h, three washes with lysis buffer, SDS-PAGE and immunoblotting. Background: A western blot detects proteins with antibodies after separation by electrophoresis.

Chains of the proteins cited; added tags and fusions are not shown.
UniProt P60903: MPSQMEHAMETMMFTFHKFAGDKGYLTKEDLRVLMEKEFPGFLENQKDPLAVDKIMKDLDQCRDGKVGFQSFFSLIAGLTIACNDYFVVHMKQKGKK

No constants are given. Whether binding was seen depends on the method and setting. In cells and extracts the contact can be indirect. Some binding calls cover weakened binding; strength is not graded here.

B1: cPLA2 protein (encoded by PLA2G4A) (enzyme, UniProt P47712 1-749)
chain: MSFIDPYQHIIVEHQYSHKFTVVVLRATKVTKGAFGDMLDTPDPYVELFISTTPDSRKRTRHFNNDINPVWNETFEFILDPNQENVLEITLMDANYVMDETLGTATFTVSSMKVGEKKEVPFIFNQVTEMVLEMSLEVCSCPDLRFSMALCDQEKTFRQQRKEHIRESMKKLLGPKNSEGLHSARDVPVVAILGSGGGFRAMVGFSGVMKALYESGILDCATYVAGLSGSTWYMSTLYSHPDFPEKGPEEINEELMKNVSHNPLLLLTPQKVKRYVESLWKKKSSGQPVTFTDIFGMLIGETLIHNRMNTTLSSLKEKVNTAQCPLPLFTCLHVKPDVSELMFADWVEFSPYEIGMAKYGTFMAPDLFGSKFFMGTVVKKYEENPLHFLMGVWGSAFSILFNRVLGVSGSQSRGSTMEEELENITTKHIVSNDSSDSDDESHEPKGTENEDAGSDYQSDNQASWIHRMIMALVSDSALFNTREGRAGKVHNFMLGLNLNTSYPLSPLSDFATQDSFDDDELDAAVADPDEFERIYEPLDVKSKKIHVVDSGLTFNLPYPLILRPQRGVDLIISFDFSARPSDSSPPFKELLLAEKWAKMNKLPFPKIDPYVFDREGLKECYVFKPKNPDMEKDCPTIIHFVLANINFRKYRAPGVPRETEEEKEIADFDIFDDPESPFSTFNFQYPNQAFKRLHDLMHFNTLNNIDVIKEAMVESIEYRRQNPSRCSVSLSNVEARRFFNKEFLSKPKA
Consider B1, for which the binding entry is recorded as “binds”.

The values above are taken from article PMC11310305.
